The series in a line: in vivo. Particulars: mouse, iv. As to the method:
Male CD1 mice from Charles River, weighing 25 g, are used. Compounds are administered intravenously (i.v.), dissolved in dimethylsulfoxide, and the volume of administration is 0.01 ml/10 g of body weight. The lethal dose, LD50 after seven days, is calculated according to the method of Litchfield and Wilcoxon (Exp. Ther. 96, 99 (1949)).

The results in this text go back to US4508719A, “Hydroxyimino and alkoxyimino derivatives of 1,4-dihydropyridine and anti-hypertensive compositions” (Pierrel S.p.A., priority 1982, dated 1985).

In general, LD50 refers to the dose at which mortality reaches 50%. `COC(=O)C1=C(C)NC(C)=C(C(=O)OC)C1c1ccccc1[N+](=O)[O-]` [Nifedipine, reference compound]: the LD50 at 168 h was 10.8 mg/kg.
